Experimental data: paper PMC9064079

Amino acid sequences for entries named in this document (tags omitted).
UniProt P35579: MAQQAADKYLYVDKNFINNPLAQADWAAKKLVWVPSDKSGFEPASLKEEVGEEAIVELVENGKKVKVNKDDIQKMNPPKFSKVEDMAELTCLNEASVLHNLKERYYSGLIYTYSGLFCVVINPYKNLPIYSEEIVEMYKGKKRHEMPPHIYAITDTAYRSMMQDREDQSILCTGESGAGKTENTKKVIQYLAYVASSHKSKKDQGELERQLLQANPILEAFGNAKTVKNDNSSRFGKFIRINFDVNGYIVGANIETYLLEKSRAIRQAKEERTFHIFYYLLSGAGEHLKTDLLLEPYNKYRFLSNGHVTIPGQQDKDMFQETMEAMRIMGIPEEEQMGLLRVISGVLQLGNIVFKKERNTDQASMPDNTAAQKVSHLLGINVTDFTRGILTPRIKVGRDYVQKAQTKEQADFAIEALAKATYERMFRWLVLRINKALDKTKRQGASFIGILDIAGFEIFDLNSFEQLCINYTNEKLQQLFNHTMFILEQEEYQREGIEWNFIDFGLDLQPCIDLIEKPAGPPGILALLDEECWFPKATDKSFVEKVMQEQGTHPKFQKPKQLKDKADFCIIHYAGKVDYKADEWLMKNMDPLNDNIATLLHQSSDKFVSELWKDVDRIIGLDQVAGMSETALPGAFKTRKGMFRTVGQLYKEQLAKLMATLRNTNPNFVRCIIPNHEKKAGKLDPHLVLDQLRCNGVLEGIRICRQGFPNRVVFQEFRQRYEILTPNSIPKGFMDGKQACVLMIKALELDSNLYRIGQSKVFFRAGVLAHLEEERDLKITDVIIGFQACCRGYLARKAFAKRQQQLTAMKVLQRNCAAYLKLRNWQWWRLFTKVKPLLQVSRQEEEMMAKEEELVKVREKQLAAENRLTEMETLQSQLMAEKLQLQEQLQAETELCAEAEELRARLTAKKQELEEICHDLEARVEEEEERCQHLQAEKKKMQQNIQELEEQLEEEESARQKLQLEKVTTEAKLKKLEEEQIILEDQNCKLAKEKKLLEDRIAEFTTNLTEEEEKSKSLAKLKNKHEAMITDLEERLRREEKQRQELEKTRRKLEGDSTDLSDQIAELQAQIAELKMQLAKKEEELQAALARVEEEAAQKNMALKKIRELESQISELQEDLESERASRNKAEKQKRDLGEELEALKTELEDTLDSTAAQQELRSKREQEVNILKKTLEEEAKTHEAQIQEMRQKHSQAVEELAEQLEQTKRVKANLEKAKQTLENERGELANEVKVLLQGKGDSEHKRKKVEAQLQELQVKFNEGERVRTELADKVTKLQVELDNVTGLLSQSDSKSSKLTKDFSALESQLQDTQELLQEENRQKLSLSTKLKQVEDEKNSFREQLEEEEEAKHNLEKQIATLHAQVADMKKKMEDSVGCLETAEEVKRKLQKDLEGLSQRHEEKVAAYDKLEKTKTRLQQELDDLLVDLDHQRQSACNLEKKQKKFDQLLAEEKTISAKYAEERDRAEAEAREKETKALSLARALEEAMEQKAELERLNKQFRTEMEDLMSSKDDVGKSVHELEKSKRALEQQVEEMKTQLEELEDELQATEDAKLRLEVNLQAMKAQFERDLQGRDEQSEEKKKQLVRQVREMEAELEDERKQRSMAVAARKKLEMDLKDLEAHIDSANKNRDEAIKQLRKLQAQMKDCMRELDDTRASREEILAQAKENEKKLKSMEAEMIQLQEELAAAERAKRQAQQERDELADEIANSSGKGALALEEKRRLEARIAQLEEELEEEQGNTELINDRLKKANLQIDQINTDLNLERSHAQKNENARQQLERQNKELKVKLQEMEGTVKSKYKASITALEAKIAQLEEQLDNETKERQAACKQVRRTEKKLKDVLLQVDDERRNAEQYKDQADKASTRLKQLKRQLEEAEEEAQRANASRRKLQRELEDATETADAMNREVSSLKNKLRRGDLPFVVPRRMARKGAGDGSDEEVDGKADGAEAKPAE

Target: Purified human Zn7-MT-3 (metallothionein 3) (human) (UniProt P25713)
Assay: affinity purification with mass spectrometry; 100 ug purified Zn7MT-3 covalently cross-linked to amine-reactive agarose beads, incubated with 1 mg HK-2 lysate; eluted in high salt buffer, SDS-PAGE, silver stain, excised bands, MALDI-TOF/TOF MS/MS; only the target purified

| binding | Substance |
| --- | --- |
| binds | Tropomyosin alpha-1 chain (from UniProt P09493-5) |
| binds | Myosin heavy chain-9, non-muscle (from UniProt P35579 1-1960) |

No constants are given. Whether binding was seen depends on the method and setting. Binding seen in cells or lysates may run through a third protein. A yes stands for co-enrichment or nearness to the bait. Other partners may have been found.
